Source: patent US6905818
Results are given in words; binding and its absence hold for the method and conditions named. Some results given as binding are weak or reduced against the parent protein; the word gives no strength.

Sequences of proteins named here, by UniProt entry; tags and fusion partners are left off. A change or cut given only in a name is not applied to a line headed by its entry.
UniProt P04386: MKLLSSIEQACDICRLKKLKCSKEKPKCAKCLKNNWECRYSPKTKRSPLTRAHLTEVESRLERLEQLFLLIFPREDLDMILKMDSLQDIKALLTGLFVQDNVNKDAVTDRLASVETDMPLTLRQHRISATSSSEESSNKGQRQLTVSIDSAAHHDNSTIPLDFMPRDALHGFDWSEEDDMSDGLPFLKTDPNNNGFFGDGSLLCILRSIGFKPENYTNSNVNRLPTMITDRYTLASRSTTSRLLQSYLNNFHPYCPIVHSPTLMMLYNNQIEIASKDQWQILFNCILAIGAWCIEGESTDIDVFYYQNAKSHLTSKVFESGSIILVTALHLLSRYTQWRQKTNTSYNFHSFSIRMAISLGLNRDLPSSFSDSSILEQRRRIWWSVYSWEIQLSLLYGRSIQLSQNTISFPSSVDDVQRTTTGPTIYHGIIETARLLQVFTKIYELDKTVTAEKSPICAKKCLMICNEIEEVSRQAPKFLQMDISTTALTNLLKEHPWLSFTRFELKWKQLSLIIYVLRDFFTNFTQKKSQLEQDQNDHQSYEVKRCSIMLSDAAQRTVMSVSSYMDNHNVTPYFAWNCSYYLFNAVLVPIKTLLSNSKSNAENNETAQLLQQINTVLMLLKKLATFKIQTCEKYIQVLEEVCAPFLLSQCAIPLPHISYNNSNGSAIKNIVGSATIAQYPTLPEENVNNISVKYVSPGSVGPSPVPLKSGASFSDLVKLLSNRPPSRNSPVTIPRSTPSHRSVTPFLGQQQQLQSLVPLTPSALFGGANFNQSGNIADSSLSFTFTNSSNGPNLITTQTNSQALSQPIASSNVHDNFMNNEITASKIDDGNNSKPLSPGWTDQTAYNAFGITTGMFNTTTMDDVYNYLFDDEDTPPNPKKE
UniProt P53762: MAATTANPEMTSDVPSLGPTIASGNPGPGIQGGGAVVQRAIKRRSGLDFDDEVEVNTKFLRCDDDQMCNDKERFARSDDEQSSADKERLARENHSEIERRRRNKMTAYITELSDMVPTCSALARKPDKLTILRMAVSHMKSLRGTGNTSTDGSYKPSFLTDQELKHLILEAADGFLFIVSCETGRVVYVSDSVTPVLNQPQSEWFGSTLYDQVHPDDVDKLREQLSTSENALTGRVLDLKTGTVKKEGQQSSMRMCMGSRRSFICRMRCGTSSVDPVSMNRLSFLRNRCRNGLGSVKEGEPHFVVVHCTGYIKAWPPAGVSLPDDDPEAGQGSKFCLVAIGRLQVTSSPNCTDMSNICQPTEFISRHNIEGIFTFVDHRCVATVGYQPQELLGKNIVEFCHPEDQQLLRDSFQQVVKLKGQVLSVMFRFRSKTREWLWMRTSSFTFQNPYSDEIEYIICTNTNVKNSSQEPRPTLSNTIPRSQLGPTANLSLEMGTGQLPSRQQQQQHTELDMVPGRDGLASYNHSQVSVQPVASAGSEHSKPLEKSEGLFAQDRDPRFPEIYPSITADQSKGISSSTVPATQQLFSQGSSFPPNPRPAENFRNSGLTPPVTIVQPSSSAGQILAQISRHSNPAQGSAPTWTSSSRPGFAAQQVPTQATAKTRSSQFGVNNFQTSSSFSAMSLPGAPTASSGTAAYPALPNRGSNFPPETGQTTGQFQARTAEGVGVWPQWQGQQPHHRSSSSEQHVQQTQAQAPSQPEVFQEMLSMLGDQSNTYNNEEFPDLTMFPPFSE
UniProt P0A7C2: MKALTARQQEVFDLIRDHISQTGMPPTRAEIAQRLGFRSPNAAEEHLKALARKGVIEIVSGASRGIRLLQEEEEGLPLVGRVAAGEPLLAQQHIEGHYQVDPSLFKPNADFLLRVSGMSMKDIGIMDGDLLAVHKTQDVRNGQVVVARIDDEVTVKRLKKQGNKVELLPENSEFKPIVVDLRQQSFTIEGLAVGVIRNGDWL

What was measured:
[1] = molecular target: T1, GAL4ad-ARNT fusion protein (yeast) (UniProt P04386+P53762); experiment: yeast two-hybrid, GFPuv reporter
[2] = molecular target: T1, GAL4ad-ARNT fusion protein (yeast); experiment: yeast two-hybrid, β-gal assay on spotted membranes
[3] = molecular target: T1, GAL4ad-ARNT fusion protein (yeast); experiment: yeast two-hybrid, automated interaction mating, β-Gal assay
[4] = molecular target: T1, GAL4ad-ARNT fusion protein (yeast); experiment: yeast two-hybrid, HIS3 and lacZ reporters with counterselection
[5] = molecular target: T1, GAL4ad-ARNT fusion protein (yeast); experiment: yeast two-hybrid, β-gal assay on spotted membranes (FIG. 11 legend)
[6] = molecular target: T1, GAL4ad-ARNT fusion protein (yeast); experiment: yeast two-hybrid positive clones 06L22 and 08N24 of the defined interaction library, members identified by hybridisation

Measured: binding

LexA-SIM1 fusion protein (from UniProt P0A7C2 1-202; Q61045 1-366)
binds: all assays above
